PubChem BioAssay AID652272 | Drosophila RNAi Screening Center – 2013
The screen tested about 21,000 reagents; below is a random part of those that have a named target and a result. Of all reagents, 503 (2.4%) are marked active. 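Raw plate light values, not normalised; calls rest on replicate z-scores that were not deposited; hits include reporter decreases as well as increases.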 No sequences are given here. The record does not give: the amount of reagent, the time to read-out.

- Screen: 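Genome-wide knock-down search for components of Hedgehog signalling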 (primary screen)
- Cell system: Drosophila clone 8 (Cl8) cells
- Knock-down reagent: long dsRNA against Drosophila genes
- Read-out: 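Firefly light from a Hedgehog-responsive ptc promoter reporter and Renilla reference light, both read on a plate reader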
- Direction: firefly Hh reporter signal: higher = more ptc reporter light; Renilla reference signal: higher = more Renilla control light
- Rule for the call: 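Called a hit if the two-replicate mean z-score lies below -2 or above +3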
- Meaning of the calls: active = hit: reporter lowered or raised; inactive = not a hit

gene | amplicon | firefly Hh reporter signal, replicate 1 | firefly Hh reporter signal, replicate 2 | firefly Hh reporter signal, replicate 3 | Renilla reference signal, replicate 1 | Renilla reference signal, replicate 2 | outcome
CG7367 | DRSC03049 | 1.02e5 | 59600 | – | 2859 | 4845 | inactive
serp (serpentine) | DRSC11035 | 1.40e5 | 1.40e5 | – | 4994 | 4001 | inactive
serp (serpentine) | DRSC11036 | 1.09e5 | 1.47e5 | – | 4083 | 3815 | inactive
CG5326 | DRSC13568 | 64707 | 1.89e5 | – | 14394 | 4167 | inactive
CG5326 | DRSC15770 | 1.67e5 | 1.15e5 | – | 6443 | 4978 | inactive
CG8543 | DRSC10990 | 83323 | 67644 | – | 10096 | 4370 | inactive
CG8046 | DRSC07059 | 89141 | 1.04e5 | – | 3605 | 3353 | inactive
Lmx1a (LIM homeobox transcription factor 1 alpha) | DRSC09726 | 47146 | 34112 | 41856 | 3840 | 2929 | inactive
Lmx1a (LIM homeobox transcription factor 1 alpha) | DRSC10275 | 45955 | 32516 | 15306 | 2733 | 1130 | inactive
CG34109 | DRSC02169 | 1.07e5 | 57448 | – | 3129 | 5216 | inactive
CG34109 | DRSC02224 | 1.03e5 | 47200 | – | 2880 | 4610 | inactive
CG34109 | DRSC02225 | 1.00e5 | 43813 | – | 3252 | 5490 | inactive
CG33298 | DRSC02210 | 1.04e5 | 30290 | – | 2704 | 3313 | inactive
CG33298 | DRSC02672 | 73910 | 1.03e5 | – | 2870 | 3879 | inactive
CG13484 | DRSC10026 | 61318 | – | – | 1684 | 2167 | inactive
Zcchc7 (Zinc finger CCHC-type containing 7) | DRSC11099 | 46291 | 31130 | – | 2405 | 1557 | inactive
CG2291 | DRSC06836 | 87629 | 51879 | – | 2134 | 3802 | inactive
CG15880 | DRSC00474 | 1.05e5 | 85984 | – | 2641 | 2230 | inactive
asf1 (anti-silencing factor 1) | DRSC11324 | 54765 | 75731 | – | 2378 | 2763 | inactive
Prx2 (Peroxiredoxin 2) | DRSC20256 | 63472 | 1.89e5 | – | 2544 | 8694 | inactive
su(w[a]) (suppressor of white-apricot) | DRSC18840 | 69154 | 70625 | – | 1170 | 2498 | inactive
PGRP-SC2 (Peptidoglycan recognition protein SC2) | DRSC06481 | 84423 | 46192 | – | 2034 | 4161 | inactive
seq (sequoia) | DRSC06863 | 64409 | 32816 | – | 1693 | 2640 | inactive
